In paper PMC12153744:
These are yes or no findings as the source states them, for the method shown. In cells and extracts the contact can be indirect. Binding calls can cover weak binding; strength is not graded here.

Chains of the proteins cited; added tags and fusions are not shown. Lines headed by an entry give the natural chain unless they say otherwise; changes in a name come on top.
UniProt Q03135: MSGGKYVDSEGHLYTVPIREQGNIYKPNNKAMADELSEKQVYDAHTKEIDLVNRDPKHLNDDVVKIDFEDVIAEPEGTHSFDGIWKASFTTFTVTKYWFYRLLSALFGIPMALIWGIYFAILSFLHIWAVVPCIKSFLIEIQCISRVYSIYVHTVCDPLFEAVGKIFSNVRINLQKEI
UniProt Q63HN8: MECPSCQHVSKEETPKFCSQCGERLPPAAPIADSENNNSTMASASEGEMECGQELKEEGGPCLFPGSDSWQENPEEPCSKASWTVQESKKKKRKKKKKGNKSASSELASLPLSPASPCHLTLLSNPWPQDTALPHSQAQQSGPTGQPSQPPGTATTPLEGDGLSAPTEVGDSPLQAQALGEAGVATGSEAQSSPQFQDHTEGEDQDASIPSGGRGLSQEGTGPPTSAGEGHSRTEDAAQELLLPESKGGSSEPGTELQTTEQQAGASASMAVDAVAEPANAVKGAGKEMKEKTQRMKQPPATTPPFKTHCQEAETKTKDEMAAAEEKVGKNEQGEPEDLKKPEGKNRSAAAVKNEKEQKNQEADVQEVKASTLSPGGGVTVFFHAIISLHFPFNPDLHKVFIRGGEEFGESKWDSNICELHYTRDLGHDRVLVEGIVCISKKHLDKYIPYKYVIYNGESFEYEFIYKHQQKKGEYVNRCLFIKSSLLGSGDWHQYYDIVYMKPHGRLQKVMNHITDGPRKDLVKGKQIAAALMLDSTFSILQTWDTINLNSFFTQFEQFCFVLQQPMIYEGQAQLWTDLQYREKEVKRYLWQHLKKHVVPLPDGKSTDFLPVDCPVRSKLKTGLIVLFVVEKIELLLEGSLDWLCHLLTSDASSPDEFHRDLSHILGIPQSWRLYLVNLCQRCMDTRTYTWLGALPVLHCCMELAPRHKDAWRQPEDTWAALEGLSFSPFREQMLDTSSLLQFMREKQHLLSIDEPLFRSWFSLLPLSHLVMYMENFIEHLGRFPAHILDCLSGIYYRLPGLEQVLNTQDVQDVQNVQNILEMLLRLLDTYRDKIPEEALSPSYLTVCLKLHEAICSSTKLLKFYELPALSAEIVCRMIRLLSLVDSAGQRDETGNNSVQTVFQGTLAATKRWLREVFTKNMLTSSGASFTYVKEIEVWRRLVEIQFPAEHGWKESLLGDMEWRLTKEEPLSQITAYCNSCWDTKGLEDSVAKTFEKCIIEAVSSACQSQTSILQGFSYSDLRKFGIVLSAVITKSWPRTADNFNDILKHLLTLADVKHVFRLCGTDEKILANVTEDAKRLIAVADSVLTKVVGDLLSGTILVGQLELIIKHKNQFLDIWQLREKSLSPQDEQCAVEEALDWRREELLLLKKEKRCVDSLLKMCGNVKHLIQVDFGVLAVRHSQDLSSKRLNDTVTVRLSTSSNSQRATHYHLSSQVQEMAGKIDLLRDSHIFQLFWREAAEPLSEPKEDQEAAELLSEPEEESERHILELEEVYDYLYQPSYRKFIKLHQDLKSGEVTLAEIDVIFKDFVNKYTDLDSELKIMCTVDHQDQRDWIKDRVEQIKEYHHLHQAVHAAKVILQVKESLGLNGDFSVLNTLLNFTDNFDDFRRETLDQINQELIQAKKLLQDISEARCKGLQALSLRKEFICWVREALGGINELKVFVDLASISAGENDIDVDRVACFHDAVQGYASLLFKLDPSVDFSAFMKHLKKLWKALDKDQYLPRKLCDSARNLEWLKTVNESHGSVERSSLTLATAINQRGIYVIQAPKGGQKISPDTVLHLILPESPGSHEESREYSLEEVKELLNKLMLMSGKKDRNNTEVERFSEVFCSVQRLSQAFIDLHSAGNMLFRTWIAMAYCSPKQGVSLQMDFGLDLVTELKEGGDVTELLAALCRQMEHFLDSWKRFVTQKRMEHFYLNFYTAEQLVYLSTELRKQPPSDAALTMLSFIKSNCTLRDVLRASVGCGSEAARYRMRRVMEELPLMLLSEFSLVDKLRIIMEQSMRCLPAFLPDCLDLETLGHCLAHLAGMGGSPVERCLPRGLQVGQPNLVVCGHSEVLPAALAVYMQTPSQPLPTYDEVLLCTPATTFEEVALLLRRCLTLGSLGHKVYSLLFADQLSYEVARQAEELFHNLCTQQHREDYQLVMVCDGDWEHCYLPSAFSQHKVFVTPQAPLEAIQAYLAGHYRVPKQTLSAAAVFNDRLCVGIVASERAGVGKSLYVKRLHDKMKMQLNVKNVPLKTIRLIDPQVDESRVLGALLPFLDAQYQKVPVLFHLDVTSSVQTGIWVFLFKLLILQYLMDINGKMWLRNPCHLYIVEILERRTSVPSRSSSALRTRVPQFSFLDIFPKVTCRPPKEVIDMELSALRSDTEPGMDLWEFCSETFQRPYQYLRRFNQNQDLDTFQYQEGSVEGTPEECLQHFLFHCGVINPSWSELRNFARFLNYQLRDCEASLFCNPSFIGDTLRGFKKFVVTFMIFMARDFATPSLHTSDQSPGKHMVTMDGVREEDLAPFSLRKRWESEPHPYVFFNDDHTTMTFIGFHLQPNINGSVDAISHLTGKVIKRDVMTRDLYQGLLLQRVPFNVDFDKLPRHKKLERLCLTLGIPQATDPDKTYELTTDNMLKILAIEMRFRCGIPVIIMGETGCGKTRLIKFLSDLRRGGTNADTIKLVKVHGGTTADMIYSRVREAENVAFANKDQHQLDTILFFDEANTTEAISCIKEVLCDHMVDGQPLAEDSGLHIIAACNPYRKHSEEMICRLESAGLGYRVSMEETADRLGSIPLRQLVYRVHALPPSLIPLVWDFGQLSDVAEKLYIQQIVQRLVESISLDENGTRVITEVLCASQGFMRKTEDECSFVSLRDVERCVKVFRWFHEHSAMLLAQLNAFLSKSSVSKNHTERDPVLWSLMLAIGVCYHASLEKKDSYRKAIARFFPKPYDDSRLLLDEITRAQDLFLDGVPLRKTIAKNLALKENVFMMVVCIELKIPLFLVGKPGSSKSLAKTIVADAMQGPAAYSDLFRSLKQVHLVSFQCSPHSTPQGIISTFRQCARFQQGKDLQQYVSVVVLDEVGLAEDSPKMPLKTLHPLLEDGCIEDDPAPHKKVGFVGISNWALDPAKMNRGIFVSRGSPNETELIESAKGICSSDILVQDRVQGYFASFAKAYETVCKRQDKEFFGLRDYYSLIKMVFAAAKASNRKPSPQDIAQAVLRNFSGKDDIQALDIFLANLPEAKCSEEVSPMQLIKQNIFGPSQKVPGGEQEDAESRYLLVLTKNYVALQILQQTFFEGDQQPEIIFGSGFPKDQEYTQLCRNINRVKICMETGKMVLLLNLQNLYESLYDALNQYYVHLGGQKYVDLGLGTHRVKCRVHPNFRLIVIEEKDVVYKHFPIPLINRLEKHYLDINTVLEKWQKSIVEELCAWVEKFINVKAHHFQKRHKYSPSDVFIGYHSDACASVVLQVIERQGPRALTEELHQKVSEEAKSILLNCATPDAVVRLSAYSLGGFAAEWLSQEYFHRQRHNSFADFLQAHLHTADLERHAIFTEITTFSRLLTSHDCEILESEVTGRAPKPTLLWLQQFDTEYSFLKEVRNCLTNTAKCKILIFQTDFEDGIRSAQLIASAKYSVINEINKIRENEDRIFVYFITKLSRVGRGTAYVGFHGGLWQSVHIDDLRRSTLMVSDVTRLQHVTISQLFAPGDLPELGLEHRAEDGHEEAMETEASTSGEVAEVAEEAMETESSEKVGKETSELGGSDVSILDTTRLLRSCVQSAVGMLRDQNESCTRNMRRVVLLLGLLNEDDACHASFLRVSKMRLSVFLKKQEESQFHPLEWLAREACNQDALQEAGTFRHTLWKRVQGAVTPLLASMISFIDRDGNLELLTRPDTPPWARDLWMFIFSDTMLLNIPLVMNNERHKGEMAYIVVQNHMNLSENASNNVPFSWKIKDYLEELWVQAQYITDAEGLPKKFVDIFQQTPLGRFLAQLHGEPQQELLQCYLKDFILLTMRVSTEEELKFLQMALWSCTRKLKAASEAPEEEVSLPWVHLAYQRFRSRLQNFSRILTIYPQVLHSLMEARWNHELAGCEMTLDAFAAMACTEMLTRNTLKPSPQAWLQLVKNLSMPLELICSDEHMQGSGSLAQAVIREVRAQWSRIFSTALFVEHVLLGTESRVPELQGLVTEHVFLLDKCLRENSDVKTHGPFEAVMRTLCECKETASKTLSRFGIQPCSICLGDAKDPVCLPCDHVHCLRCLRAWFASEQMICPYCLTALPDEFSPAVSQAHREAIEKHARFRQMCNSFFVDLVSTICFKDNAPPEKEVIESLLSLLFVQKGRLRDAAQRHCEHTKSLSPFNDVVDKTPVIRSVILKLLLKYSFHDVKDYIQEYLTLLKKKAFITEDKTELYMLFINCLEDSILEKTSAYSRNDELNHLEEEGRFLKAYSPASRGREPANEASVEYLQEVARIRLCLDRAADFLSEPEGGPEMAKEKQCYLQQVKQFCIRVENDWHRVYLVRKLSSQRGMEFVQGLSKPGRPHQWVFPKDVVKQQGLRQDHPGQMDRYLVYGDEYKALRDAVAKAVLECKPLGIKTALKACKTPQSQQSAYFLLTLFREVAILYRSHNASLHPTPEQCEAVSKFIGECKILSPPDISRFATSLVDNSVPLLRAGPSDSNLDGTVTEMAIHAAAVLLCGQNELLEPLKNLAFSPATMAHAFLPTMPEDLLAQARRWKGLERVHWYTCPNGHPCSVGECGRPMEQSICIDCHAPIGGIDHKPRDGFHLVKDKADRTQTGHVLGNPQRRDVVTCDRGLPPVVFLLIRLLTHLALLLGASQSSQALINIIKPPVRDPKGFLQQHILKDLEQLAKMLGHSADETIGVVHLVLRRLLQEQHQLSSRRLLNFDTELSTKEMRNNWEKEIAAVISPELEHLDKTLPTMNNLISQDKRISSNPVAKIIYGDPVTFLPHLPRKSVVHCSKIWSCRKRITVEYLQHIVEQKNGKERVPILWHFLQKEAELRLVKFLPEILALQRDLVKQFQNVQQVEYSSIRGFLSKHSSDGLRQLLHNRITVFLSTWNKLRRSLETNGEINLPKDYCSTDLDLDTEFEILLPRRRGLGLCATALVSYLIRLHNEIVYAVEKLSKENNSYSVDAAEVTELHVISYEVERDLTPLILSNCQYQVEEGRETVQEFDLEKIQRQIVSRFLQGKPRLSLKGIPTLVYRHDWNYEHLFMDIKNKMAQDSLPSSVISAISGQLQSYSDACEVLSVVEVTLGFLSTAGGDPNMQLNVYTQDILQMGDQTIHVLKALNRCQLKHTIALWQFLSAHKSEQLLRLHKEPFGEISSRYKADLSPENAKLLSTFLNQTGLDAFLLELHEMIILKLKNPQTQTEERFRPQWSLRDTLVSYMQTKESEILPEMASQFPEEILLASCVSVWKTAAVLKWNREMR

Biological target: HA-Cav-1, full-length wild type (UniProt Q03135)
Assay: co-IP; HEK293T cells co-transfected with FLAG-tagged RNF213 (WT, fragments or mutants) and HA-tagged Cav-1 (WT, deletions or mutants); IP with anti-HA antibody; immunoblot; ratio of bound to input RNF213

binding	Substance
binds	RNF213 with point mutations in the putative caveolin-binding motif CBM1 (from UniProt Q63HN8)
binds	RNF213 with point mutations in the putative caveolin-binding motif CBM2 (from UniProt Q63HN8)
